The results in this text go back to patent US10525105B2 (Guangzhou Link Health Pharma Co., Ltd., priority 2016, dated 2020).

Some peptides are written in HELM: one residue between dots, names in brackets for other building blocks, links after the first $.

The nature of the data set: peptide made by a vendor. The settings on record: whole synthesis, HPLC.

Regarding “HELM PEPTIDE1{[dQ].L.K.H.R.N.[N=C(N)NCCCC[C@H](N[*:1])C(=O)[*:2]].H.R.I.K.T.G.S.T.N.H.G.L.V.Q.S.L.[am]}$$$$V2.0 (N-terminus assumed; SMILES CC[C@H](C)[C@H](NC(=O)[C@H](CCCNC(=N)N)NC(=O)[C@H](Cc1c[nH]cn1)NC(=O)[C@H](CCCCNC(=N)N)NC(=O)[C@H](CC(N)=O)NC(=O)[C@H](CCCNC(=N)N)NC(=O)[C@H](Cc1c[nH]cn1)NC(=O)[C@H](CCCCN)NC(=O)[C@H](CC(C)C)NC(=O)[C@H](N)CCC(N)=O)C(=O)N[C@@H](CCCCN)C(=O)N[C@H](C(=O)NCC(=O)N[C@@H](CO)C(=O)N[C@H](C(=O)N[C@@H](CC(N)=O)C(=O)N[C@@H](Cc1c[nH]cn1)C(=O)NCC(=O)N[C@@H](CC(C)C)C(=O)N[C@H](C(=O)N[C@@H](CCC(N)=O)C(=O)N[C@@H](CO)C(=O)N[C@@H](CC(C)C)C(N)=O)C(C)C)[C@@H](C)O)[C@@H](C)O)”, the “purity (crude or final not stated)” value was “larger than 98%”.
